According to the supplement of paper PMC10849652:
The list shows a part of the results.

Protein sequences, listed by entry. Tags and fused reporters are not part of them. Lines headed by an entry give the natural chain unless they say otherwise; changes in a name come on top.
UniProt O00469: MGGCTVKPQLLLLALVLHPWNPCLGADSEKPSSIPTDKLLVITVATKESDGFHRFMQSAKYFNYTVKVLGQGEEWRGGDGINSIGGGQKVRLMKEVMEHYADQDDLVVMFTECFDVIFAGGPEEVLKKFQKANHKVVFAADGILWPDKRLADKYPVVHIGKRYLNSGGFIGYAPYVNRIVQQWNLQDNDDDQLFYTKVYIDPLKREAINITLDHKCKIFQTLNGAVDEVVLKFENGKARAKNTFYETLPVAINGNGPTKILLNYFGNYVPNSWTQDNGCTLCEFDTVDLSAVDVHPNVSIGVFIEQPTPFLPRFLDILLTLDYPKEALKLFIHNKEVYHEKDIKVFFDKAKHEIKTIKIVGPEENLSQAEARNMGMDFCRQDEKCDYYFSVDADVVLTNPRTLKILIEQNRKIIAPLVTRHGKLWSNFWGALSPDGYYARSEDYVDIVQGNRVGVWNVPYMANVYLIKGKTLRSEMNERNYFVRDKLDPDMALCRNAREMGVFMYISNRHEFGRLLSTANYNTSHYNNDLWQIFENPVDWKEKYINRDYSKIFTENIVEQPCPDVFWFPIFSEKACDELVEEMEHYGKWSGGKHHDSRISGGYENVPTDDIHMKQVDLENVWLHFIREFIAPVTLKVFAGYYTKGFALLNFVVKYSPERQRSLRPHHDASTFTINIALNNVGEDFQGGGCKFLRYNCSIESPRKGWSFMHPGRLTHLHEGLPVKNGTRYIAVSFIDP
UniProt P62937, whole entry, looked up: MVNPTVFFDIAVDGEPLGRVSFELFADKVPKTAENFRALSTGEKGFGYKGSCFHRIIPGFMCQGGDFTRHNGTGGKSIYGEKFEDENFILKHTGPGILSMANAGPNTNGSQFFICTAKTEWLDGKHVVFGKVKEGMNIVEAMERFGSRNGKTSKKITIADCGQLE
UniProt Q9Y4G2: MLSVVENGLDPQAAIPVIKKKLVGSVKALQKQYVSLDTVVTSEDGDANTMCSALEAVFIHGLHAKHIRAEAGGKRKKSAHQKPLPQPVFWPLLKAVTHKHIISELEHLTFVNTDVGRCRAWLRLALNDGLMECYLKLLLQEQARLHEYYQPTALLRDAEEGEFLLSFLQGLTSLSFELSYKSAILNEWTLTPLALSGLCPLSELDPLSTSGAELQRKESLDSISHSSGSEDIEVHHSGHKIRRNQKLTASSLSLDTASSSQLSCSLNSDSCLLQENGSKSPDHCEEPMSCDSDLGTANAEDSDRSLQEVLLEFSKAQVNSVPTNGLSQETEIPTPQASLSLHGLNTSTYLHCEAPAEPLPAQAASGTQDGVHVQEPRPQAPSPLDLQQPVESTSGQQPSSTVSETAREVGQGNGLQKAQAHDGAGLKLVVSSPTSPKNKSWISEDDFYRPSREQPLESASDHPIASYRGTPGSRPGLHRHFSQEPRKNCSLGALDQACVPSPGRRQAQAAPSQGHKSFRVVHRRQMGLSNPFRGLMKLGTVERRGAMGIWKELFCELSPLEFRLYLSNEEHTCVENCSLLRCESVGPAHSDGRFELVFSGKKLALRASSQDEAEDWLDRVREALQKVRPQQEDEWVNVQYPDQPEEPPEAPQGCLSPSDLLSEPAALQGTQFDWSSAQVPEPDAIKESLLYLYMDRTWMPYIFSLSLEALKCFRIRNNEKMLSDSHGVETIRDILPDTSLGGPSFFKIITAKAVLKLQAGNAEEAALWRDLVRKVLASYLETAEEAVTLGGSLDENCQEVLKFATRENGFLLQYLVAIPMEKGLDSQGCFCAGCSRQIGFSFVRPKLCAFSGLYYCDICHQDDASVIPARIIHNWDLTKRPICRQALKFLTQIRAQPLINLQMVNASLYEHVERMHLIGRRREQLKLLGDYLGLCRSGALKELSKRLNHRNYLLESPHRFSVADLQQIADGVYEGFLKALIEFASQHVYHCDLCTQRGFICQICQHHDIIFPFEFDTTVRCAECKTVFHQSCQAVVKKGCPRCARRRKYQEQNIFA
UniProt Q7Z3K3: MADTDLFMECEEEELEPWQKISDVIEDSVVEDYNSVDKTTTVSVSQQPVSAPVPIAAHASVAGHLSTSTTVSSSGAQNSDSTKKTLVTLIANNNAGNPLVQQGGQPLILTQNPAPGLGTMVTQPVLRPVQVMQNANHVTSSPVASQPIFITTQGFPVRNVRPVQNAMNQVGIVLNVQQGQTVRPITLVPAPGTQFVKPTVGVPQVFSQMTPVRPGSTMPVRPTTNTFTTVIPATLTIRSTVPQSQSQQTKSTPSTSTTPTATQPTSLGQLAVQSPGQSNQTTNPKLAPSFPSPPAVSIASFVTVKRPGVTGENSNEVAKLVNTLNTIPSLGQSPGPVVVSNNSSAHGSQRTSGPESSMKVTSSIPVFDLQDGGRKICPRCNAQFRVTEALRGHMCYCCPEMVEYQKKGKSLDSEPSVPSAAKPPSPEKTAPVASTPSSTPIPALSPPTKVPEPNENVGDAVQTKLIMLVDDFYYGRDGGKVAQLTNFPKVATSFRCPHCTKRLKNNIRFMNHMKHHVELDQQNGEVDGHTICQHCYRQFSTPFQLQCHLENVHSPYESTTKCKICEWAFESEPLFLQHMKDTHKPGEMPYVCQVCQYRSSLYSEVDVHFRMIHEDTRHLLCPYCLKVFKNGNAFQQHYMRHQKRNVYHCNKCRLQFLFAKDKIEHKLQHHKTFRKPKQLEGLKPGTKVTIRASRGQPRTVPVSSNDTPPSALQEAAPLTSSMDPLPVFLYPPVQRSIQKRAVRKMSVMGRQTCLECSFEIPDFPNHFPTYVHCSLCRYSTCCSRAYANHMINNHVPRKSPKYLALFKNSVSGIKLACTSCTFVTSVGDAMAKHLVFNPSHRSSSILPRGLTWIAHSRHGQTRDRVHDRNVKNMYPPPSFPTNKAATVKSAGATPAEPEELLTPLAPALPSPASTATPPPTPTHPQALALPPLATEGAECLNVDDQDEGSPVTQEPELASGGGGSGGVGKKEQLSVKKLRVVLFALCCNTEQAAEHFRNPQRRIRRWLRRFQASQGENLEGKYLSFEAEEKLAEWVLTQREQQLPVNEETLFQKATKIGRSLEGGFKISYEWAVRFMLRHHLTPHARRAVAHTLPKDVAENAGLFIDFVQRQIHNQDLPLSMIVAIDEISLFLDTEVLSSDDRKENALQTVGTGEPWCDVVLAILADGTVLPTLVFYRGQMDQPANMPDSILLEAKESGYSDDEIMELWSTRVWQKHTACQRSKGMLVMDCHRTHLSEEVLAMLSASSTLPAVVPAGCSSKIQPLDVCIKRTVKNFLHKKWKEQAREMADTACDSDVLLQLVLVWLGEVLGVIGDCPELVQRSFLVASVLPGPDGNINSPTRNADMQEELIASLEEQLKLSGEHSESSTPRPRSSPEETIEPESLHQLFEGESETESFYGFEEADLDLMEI
UniProt Q8NBT0: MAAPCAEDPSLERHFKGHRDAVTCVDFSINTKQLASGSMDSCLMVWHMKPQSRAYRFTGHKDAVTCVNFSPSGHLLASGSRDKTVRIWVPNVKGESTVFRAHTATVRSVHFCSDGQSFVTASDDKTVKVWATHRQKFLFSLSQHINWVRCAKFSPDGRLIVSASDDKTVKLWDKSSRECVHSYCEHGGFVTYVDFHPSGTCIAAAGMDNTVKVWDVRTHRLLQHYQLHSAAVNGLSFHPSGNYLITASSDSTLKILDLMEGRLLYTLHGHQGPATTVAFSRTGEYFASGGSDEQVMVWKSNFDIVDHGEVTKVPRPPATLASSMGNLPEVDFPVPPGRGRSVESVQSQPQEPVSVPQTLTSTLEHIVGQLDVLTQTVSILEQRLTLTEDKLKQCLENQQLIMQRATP
UniProt Q9NW61: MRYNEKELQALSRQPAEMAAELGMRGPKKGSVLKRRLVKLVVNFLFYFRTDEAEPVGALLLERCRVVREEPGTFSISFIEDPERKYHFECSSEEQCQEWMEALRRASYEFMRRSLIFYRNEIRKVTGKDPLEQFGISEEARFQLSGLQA
UniProt Q86W92: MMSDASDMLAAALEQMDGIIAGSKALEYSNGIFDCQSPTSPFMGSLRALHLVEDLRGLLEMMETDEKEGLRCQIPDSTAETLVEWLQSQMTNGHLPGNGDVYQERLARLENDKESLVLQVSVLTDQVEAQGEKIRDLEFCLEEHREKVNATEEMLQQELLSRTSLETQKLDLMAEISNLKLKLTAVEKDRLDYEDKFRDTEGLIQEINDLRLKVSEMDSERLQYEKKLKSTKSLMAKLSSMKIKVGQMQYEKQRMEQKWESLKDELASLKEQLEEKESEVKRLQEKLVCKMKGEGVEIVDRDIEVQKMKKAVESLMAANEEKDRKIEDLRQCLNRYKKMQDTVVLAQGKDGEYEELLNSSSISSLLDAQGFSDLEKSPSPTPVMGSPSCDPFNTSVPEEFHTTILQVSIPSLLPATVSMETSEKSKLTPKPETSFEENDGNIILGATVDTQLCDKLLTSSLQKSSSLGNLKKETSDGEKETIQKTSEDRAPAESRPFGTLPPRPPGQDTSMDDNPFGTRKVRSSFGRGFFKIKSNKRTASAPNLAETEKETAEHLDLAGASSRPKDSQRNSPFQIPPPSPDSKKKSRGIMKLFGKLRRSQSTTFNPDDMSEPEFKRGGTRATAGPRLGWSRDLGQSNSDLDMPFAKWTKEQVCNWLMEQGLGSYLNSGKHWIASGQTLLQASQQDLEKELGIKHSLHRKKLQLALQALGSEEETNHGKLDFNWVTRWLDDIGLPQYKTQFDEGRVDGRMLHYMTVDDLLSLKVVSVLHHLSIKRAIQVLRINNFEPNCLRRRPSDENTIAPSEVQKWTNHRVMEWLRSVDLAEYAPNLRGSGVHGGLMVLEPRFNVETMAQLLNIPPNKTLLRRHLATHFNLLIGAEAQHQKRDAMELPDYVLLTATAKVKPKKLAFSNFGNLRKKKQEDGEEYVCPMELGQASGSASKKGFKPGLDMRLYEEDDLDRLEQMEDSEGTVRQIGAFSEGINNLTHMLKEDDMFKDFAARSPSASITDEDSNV
UniProt Q9HCU8: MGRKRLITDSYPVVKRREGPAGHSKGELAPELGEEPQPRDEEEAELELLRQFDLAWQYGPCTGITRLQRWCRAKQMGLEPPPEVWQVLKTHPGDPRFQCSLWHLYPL
UniProt Q86V59: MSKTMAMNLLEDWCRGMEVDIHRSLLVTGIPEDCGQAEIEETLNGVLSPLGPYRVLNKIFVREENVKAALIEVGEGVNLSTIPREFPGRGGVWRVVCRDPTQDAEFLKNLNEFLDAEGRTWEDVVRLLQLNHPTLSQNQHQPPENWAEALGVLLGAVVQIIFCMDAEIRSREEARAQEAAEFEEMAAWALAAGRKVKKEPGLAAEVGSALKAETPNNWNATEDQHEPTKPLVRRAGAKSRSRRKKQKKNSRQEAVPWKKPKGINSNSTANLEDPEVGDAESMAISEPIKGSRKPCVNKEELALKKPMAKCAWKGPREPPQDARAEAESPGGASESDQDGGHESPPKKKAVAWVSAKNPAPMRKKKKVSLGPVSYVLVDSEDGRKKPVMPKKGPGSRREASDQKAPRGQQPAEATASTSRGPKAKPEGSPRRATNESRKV
UniProt Q86YN6: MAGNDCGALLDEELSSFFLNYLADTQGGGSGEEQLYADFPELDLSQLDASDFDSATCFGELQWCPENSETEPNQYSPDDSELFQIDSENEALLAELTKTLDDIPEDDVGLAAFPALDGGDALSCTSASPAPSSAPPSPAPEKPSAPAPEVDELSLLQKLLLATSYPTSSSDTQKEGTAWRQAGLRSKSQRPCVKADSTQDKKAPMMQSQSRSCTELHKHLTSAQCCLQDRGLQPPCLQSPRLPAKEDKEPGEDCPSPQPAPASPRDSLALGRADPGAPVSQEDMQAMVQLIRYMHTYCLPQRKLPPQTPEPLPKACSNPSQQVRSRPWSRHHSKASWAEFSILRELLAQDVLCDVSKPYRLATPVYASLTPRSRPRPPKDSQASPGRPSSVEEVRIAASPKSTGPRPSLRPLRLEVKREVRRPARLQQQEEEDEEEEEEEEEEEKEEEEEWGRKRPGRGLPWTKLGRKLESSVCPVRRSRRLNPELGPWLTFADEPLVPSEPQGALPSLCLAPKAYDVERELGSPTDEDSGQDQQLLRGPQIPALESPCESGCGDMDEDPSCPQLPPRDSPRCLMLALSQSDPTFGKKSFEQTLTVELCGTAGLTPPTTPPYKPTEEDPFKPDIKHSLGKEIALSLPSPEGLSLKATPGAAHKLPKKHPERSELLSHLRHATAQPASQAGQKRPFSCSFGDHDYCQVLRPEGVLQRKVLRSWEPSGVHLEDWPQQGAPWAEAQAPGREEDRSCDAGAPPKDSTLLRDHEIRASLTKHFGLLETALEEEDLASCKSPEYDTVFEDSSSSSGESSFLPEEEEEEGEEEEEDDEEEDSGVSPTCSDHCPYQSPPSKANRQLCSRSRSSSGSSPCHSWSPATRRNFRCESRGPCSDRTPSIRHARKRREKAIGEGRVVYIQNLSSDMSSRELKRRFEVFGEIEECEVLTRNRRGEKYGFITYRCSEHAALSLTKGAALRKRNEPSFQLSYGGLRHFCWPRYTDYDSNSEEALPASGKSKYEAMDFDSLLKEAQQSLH

What was measured:
Assay in all cases: log2 fold change, soluble protein after heating vs DMSO (PISA); higher = thermal stabilisation; K562 lysate, 10 uM; active = over 0.2 and 3.5 SD of the protein, either way, in both replicates (recomputed)
[1] = compound: C/C(=N\NC(=O)C1=CC(=CC=C1)S(=O)(=O)N2CCOCC2)/C3=C(C=CC(=C3)Cl)O
Summary of the method: (§1)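 K562 pellets were dounce-homogenised in PBS pH 7.4 containing 1 mM MgCl2, and the crude extract, at 1 mg/mL protein, was exposed to 10 μM compound for 30 min. Aliquots were heated for 3 min across 48°C-58°C, pooled, brought to 0.5% NP-40 at 4°C and spun at 21,000xg for 90 min, with the supernatant taken as soluble protein. TMTpro 16plex LC-MS/MS with equalised channel sums quantified that protein. Values are log-two fold changes in thermal stability relative to solvent controls, taken from duplicates.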

[2] = compound: C1=CC2=C(C=CC(=C2)/C=C\3/C(=O)NC(=NCC4=CC=CS4)S3)N=C1
Summary of the method: as §1

[3] = compound: C1=CC2=NC=CN=C2C=C1/C=C/3\C(=O)NC(=O)S3
Summary of the method: as §1

[4] = compound: C1=CC=C2C(=C1)C3=NNC4=CC=CC(=C43)C2=O
Summary of the method: as §1

[5] = compound: C1CCN(C1)C(=O)NC2=CC=CC(=C2)NC3=NC=C(C(=N3)NCCC4=CN=CN4)Br
Summary of the method: as §1

[6] = compound: C1CN(CCC1(CC2=CC=C(C=C2)Cl)N)C3=NC=NC4=C3C=CN4
Summary of the method: as §1

[7] = compound: C1=CC=C(C=C1)C2=NC(=C(N2)C3=CC=NC=C3)C4=CC(=C(C=C4)Cl)O
Summary of the method: as §1

IRAK-1-4 Inhibitor I = compound: C1COCCN1CCN2C3=CC=CC=C3N=C2NC(=O)C4=CC(=CC=C4)[N+](=O)[O-] [IRAK-1-4 Inhibitor I]
Summary of the method: as §1

erlotinib = compound: C#Cc1cccc(Nc2ncnc3cc(OCCOC)c(OCCOC)cc23)c1 [erlotinib]
Summary of the method: as §1

[8] = compound: C1=CC(=CC=C1C2=NC3=C(N2)C=C(C=C3)C(=O)N)OC4=CC=C(C=C4)Cl
Summary of the method: as §1

Measured: log2 fold change

PLOD2 isoform 2 (UniProt O00469)
inactive: [1] -0.254 | [2] 0.091 | [3] -0.188 | [4] 0.102 | [5] 0.268 | [6] -0.068

PLEKHH2 (UniProt E5RGK1)
inactive: [1] 0.091 | [2] 0.021 | [4] -0.072 | [5] 0.274 | [6] -0.083

PMS2CL (UniProt Q68D20)
inactive: [3] 0.101 | [7] -0.041 | IRAK-1-4 Inhibitor I 0.054

POTEKP (UniProt Q9BYX7)
inactive: erlotinib 1.53 | [8] -0.508 | [3] 1.2 | [7] 1.96 | IRAK-1-4 Inhibitor I 1.22

PPIA isoform 2 (UniProt P62937)
inactive: [3] -0.024

PLEKHM1 (UniProt Q9Y4G2)
inactive: erlotinib 0.055 | [1] 0.01 | [8] 0.025 | [2] -0.089 | [7] -0.084 | [4] -0.107 | [5] -0.033 | [6] 0.04 | IRAK-1-4 Inhibitor I 0.033

POLR2F (UniProt U3KPV3)
inactive: [5] -0.055 | [6] 0.084

PM20D2 (UniProt Q8IYS1)
inactive: [1] -0.049 | [2] 0.06 | [3] -0.006 | [7] 0.206 | [4] 0.047 | [5] 0.133 | [6] -0.128 | IRAK-1-4 Inhibitor I -0.01

POLR2K (UniProt P53803)
inactive: [1] -0.215 | [2] 0.025 | [3] -0.013 | [7] -0.058 | [4] 0.144 | [5] 0.094 | [6] -0.043 | IRAK-1-4 Inhibitor I 0.065

POGZ (UniProt Q7Z3K3)
inactive: [1] 0.016 | [2] 0.013 | [7] 0.043 | [4] -0.076 | [5] -0.015 | [6] 0.02 | IRAK-1-4 Inhibitor I 0.056

POC1A (UniProt Q8NBT0)
inactive: [1] 0.022 | [2] 0.124 | [4] -0.038 | [5] 0.017 | [6] -0.059

POLR2J (UniProt P52435)
inactive: erlotinib 0.071 | [8] -0.018 | [3] 0.12 | [7] -0.023 | [5] -0.022 | [6] 0.003 | IRAK-1-4 Inhibitor I -0.003

PLXND1 (UniProt Q9Y4D7)
inactive: erlotinib -0.067 | [8] 0.073 | [3] -0.048 | [7] -0.016 | IRAK-1-4 Inhibitor I -0.032

PLEKHJ1 (UniProt Q9NW61)
inactive: erlotinib 0.03 | [8] 0.009 | [7] -0.009 | IRAK-1-4 Inhibitor I -0.015

POM121C (UniProt A8CG34)
inactive: erlotinib 0.001 | [8] 0.027 | [3] 0.032 | [7] -0.064 | IRAK-1-4 Inhibitor I -0.069

PLPP6 (UniProt Q8IY26)
inactive: erlotinib 0.036 | [1] 0.204 | [8] -0.066 | [2] -0.017 | [7] -0.096 | [4] -0.082 | IRAK-1-4 Inhibitor I 0.044

POU6F1, A0A1C7CYV8
inactive: [7] 0.188 | IRAK-1-4 Inhibitor I -0.021

PPHLN1 (UniProt Q8NEY8)
inactive: erlotinib -0.034 | [1] -0.237 | [8] -0.096 | [2] 0.003 | [4] -0.001 | [5] -0.062 | [6] -0.007

PLTP (UniProt P55058)
inactive: erlotinib 0.083 | [1] 0.004 | [8] -0.038 | [2] -0.101 | [7] 0.04 | [4] -0.069 | IRAK-1-4 Inhibitor I -0.018

PPHLN1 isoform 3 (UniProt Q8NEY8)
inactive: [1] -0.016 | [2] 0.146 | [7] 0.148 | [4] -0.195 | IRAK-1-4 Inhibitor I -0.003

Fetched one by one from the list above, two records:
POLR2K (UniProt P53803)
inactive: [1] -0.215 | [2] 0.025 | [3] -0.013 | [7] -0.058 | [4] 0.144 | [5] 0.094 | [6] -0.043 | IRAK-1-4 Inhibitor I 0.065

PLPP6 (UniProt Q8IY26)
inactive: erlotinib 0.036 | [1] 0.204 | [8] -0.066 | [2] -0.017 | [7] -0.096 | [4] -0.082 | IRAK-1-4 Inhibitor I 0.044

Additional records

PPFIBP1 (UniProt Q86W92)
inactive: [5] 0.12 | [6] -0.116

POC1B (UniProt Q8TC44)
inactive: erlotinib -0.066 | [1] -0.038 | [8] -0.146 | [2] 0.192 | [7] 0 | [4] -0.436 | [5] -0.045 | [6] 0.182 | IRAK-1-4 Inhibitor I 0.032

POLD4 (UniProt Q9HCU8)
inactive: erlotinib 0.033 | [1] 0.043 | [8] 0.003 | [2] 0.028 | [7] 0.025 | [4] 0.018 | [5] -0.007 | [6] -0.012 | IRAK-1-4 Inhibitor I 0.07

POLR2M (UniProt Q6EEV4)
inactive: erlotinib 0.011 | [1] 0.164 | [8] -0.025 | [2] -0.031 | [3] -0.045 | [4] -0.111 | [5] 0.052 | [6] -0.01

PML isoform 11 (UniProt P29590)
inactive: [1] 0.048 | [2] -0.056 | [4] 0.026 | [5] 0.084 | [6] -0.053

PLP2 (UniProt Q04941)
inactive: erlotinib -0.038 | [1] -0.036 | [8] 0.016 | [2] -0.05 | [3] -0.083 | [4] -0.074 | [5] -0.023 | [6] -0.024

PNPLA4 (UniProt P41247)
inactive: [1] 0.064 | [2] 0.1 | [7] 0.051 | [4] 0.1 | [5] 0.086 | [6] 0.09 | IRAK-1-4 Inhibitor I -0.001

PLPPR3 isoform 3 (UniProt Q6T4P5)
inactive: [7] 0.235 | IRAK-1-4 Inhibitor I -0.016

PLXNB1 (UniProt O43157)
inactive: erlotinib -0.007 | [8] 0.145 | [7] -0.014 | IRAK-1-4 Inhibitor I 0.108

PNMA8A (UniProt Q86V59)
inactive: erlotinib -0.049 | [8] -0.102 | [3] -0.053 | [7] 0.015 | [5] 0.129 | [6] 0.005 | IRAK-1-4 Inhibitor I 0.08

POLR2I (UniProt P36954)
inactive: erlotinib 0.024 | [1] 0.029 | [8] -0.089 | [2] 0.016 | [3] -0.027 | [7] -0.005 | [4] -0.004 | IRAK-1-4 Inhibitor I -0.076

PPARGC1B (UniProt Q86YN6)
inactive: erlotinib -0.032 | [8] 0.078 | [7] 0.01 | IRAK-1-4 Inhibitor I -0.013

PLEKHG4 (UniProt Q58EX7)
inactive: [1] 0.121 | [2] 0.016 | [7] 0.113 | [4] 0.021 | [5] 0.039 | [6] -0.075 | IRAK-1-4 Inhibitor I -0.014
